PubChem BioAssay AID504786 – Drosophila RNAi Screening Center | 2011

Purpose: 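Positive regulators of HIF-driven reporter output in Drosophila cells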 (primary screen)
Cell system: Drosophila S2 cells with a stable HIF luciferase reporter
Knock-down reagent: long dsRNA against Drosophila genes, about 0.2 µg dsRNA per well of a 384-well plate
Timing: three days of knock-down, then 20 h of DFO before reading
Challenge: desferrioxamine (DFO) at 100 µM, an iron chelator that mimics hypoxia, for 20 h
Measured: 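Firefly luciferase driven by the mouse ldh-a hypoxia-response element, measured after 20 h of 100 µM DFO; z-scores per plate, higher means more signal lost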
Direction: z-score: higher = stronger loss of HIF reporter signal
The screen tested about 21,000 reagents; this is an unselected part of those that have a named target and a result. 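Primary screen; positive scores mean lost reporter signal, so the sign may be inverted from the usual convention.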 The numbers tell different reagents against one gene apart. Names joined by + are all predicted targets of the reagent. Not all columns of the deposit are shown. Reagent sequences are not shown.

| gene knocked down | reagent no. | z-score, replicate 1 | z-score, replicate 2 | z-score, replicate 3 |
| --- | --- | --- | --- | --- |
| CG32437 | 1 | -0.3 | -0.6 | – |
| Or24a (Odorant receptor 24a) | 1 | 0 | -0.3 | – |
| CG14333 (retired record) | 1 | -0.3 | 0.3 | – |
| CG14333 (retired record) | 2 | -0.2 | -0.3 | – |
| temp (tempura) | 1 | -0.3 | -0.6 | – |
| Kua | 1 | -0.4 | -0.5 | – |
| CG7512 | 1 | -0.1 | -0.1 | – |
| Cpsf160 (Cleavage and polyadenylation specificity factor 160) | 1 | 1.1 | 0.6 | – |
| CG4658 | 1 | -0.3 | -0.7 | – |
| Ubc2 (Ubiquitin conjugating enzyme 2) | 1 | -0.2 | -0.3 | – |
| Ubc2 (Ubiquitin conjugating enzyme 2) | 2 | 0.1 | 1.1 | – |
| zyd (zydeco) | 1 | -0.1 | -0.3 | – |
| CG10116 | 1 | -0.1 | -0.1 | – |
| Nup62 (Nucleoporin 62kD) | 1 | 1.3 | 2 | – |
| tej (tejas) | 1 | -0.4 | -0.3 | – |
| Fas2 (Fasciclin 2) | 1 | 1.9 | 2.9 | – |
| Fas2 (Fasciclin 2) | 2 | -0.1 | -0.1 | – |
| Fas2 (Fasciclin 2) | 3 | 0 | -0.5 | – |
| CG13712 | 1 | -0.5 | -0.4 | – |
| CG33506 | 1 | 0.1 | 0.1 | – |
| CG8560 | 1 | -0.4 | -0.9 | – |
| CG5966 | 1 | -0.3 | 0.6 | – |
| Pu (Punch) | 1 | -0.1 | 1.3 | – |
| CG10347 | 1 | -0.4 | -0.6 | – |
| pwn (pawn) | 1 | -0.2 | -0.4 | – |
| CG15464 (retired record) | 1 | -0.3 | -0.5 | 0.1 |
| CG12316 | 1 | -0.2 | -0.6 | – |
| Usp14 (Ubiquitin specific protease 14) | 1 | -0.3 | -0.9 | – |
| CG12541 | 1 | 0.2 | -0.1 | – |
| CG12541 | 2 | -0.3 | -0.4 | – |
| eIF3g2 (eukaryotic translation initiation factor 3 subunit g2) | 1 | -0.1 | -0.6 | – |
| per (period) | 1 | -0.3 | -0.4 | – |
| CG17260 | 1 | -0.3 | -0.4 | – |
| achi (achintya) | 1 | -0.4 | -0.5 | – |
| knrl (knirps-like) | 1 | -0.2 | 0 | – |
| ckn (caskin) | 1 | -0.2 | -0.3 | – |
| jing | 1 | -0.3 | -0.5 | – |
| jing | 2 | 0.1 | -0.2 | – |
| jing | 3 | 0.7 | 0.9 | – |
| mus201 + Chrac-14 | 1 | -0.3 | 0.4 | – |
| mus201 + Chrac-14 | 2 | -0.2 | 0 | – |
| CG10903 | 1 | 0.4 | 0.8 | – |
| RYa-R (RYamide receptor) | 1 | -0.4 | -0.1 | – |
| CG3251 | 1 | -0.2 | -0.4 | – |
| homer | 1 | -0.1 | -0.3 | – |
| Oseg5 (Outer segment 5) | 1 | -0.2 | -0.6 | – |
| Or22b (Odorant receptor 22b) | 1 | -0.2 | 0 | – |
| CG13231 | 1 | -0.3 | -0.3 | – |
| kat80 (katanin 80) | 1 | -0.1 | -0.2 | – |
| kat80 (katanin 80) | 2 | -0.3 | -0.3 | – |

Next part (7 carried over from the part before).
| gene knocked down | reagent no. | z-score, replicate 1 | z-score, replicate 2 | z-score, replicate 3 |
| --- | --- | --- | --- | --- |
| CG3251 | 1 | -0.2 | -0.4 | – |
| homer | 1 | -0.1 | -0.3 | – |
| Oseg5 (Outer segment 5) | 1 | -0.2 | -0.6 | – |
| Or22b (Odorant receptor 22b) | 1 | -0.2 | 0 | – |
| CG13231 | 1 | -0.3 | -0.3 | – |
| kat80 (katanin 80) | 1 | -0.1 | -0.2 | – |
| kat80 (katanin 80) | 2 | -0.3 | -0.3 | – |
| Arf4 (ADP ribosylation factor 4) | 1 | -0.5 | -0.4 | – |
| Mst33A | 1 | -0.4 | -0.4 | – |
| Rep (Rab escort protein) | 1 | 0.2 | 0.1 | – |
| Abi (Abelson interacting protein) | 1 | 0.1 | 0.6 | – |
| mesh | 1 | -0.5 | -0.6 | -0.3 |
| mesh | 2 | -0.2 | -0.4 | – |
| mesh | 3 | -0.1 | 0.3 | – |
| Or85e (retired record) | 1 | -0.2 | -0.3 | – |
| Uck (Uridine-cytidine kinase) | 1 | 0 | 0 | – |
| Uck (Uridine-cytidine kinase) | 2 | -0.3 | 0.3 | – |
| Mdr50 (Multi drug resistance 50) | 1 | -0.1 | -0.1 | – |
| CG13065 | 1 | -0.3 | -0.3 | – |
| Est-P (Esterase P) | 1 | -0.3 | -0.2 | – |
| Had2 (beta Hydroxy acid dehydrogenase 2) | 1 | -0.4 | -0.3 | – |
| dmrt11E (doublesex-Mab related 11E) | 1 | -0.4 | -1.1 | – |
| CG12605 | 1 | -0.2 | 0.4 | – |
| btl (breathless) | 1 | -0.2 | -0.6 | – |
| CG33969 | 1 | -0.3 | -0.6 | – |
| cac (cacophony) | 1 | -0.2 | -0.5 | – |
| cac (cacophony) | 2 | -0.1 | -0.3 | – |
| CG30159 | 1 | -0.3 | -0.5 | – |
| hll (heimdall) | 1 | 0 | 0.1 | – |
| Osi5 (Osiris 5) | 1 | -0.1 | -0.4 | – |
| CG11106 | 1 | -0.1 | -0.5 | – |
| CG9289 | 1 | -0.4 | -0.2 | – |
| CG8850 | 1 | -0.2 | -0.1 | – |
| Sgt (small glutamine-rich tetratricopeptide containing protein) | 1 | -0.4 | -0.3 | – |
| opa (odd paired) | 1 | -0.1 | -0.1 | – |
| CG12134 | 1 | -0.3 | 0.2 | – |
| sac (sterile affecting ciliogenesis) | 1 | -0.2 | -0.1 | – |
| AlkB | 1 | -0.3 | -0.4 | – |
| Ilp3 (Insulin-like peptide 3) | 1 | -0.2 | -0.4 | – |
| Fst (Frost) | 1 | -0.3 | -0.2 | – |
